# Values from PubChem BioAssay AID504774 (Drosophila RNAi Screening Center, 2011)
# Assay: 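Genes required for cells to withstand methyl methanesulphonate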 (primary screen)
# System: Drosophila Kc167 cells
# Knock-down reagent: long dsRNA against Drosophila genes, about 0.25 µg dsRNA per well
# Timing: about 6 days: 3 days knock-down, then 3 days with or without MMS
# Treatment: methyl methanesulphonate 0.004% (w/v) for 3 days after knock-down
# Read-out: 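ATP-dependent luminescence as a measure of live cells in MMS-exposed wells, quantile normalised within each plate, with replicate values also given as a mean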
# Scale: mean viability with MMS and viability with MMS: higher = more surviving cells after MMS
# In all, the deposit lists about 23,000 reagents; shown is a random part of those with a known target gene and a result. 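Values are quantile-normalised luminescence on an arbitrary scale; higher means more cells surviving MMS.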 A plus sign joins genes that one reagent is predicted to hit. Further read-outs or replicates are left out here.
target,dsRNA,mean viability with MMS,"viability with MMS, replicate 1"
CG32248,DRSC08102,3.38e6,3.79e6
CG7252,DRSC10789,3.65e6,4.11e6
CG7252,DRSC21492,3.75e6,4.23e6
Oscillin,DRSC03001,3.55e6,3.84e6
Gen,DRSC09679,3.61e6,4.11e6
dpr2,DRSC02370,3.74e6,4.11e6
dpr2,DRSC02371,3.69e6,4.05e6
Oda,DRSC07626,3.46e6,3.94e6
CG15136,DRSC02436,3.50e6,4.06e6
CG3631,DRSC15503,3.49e6,3.87e6
noc,DRSC03580,3.41e6,3.84e6
Trissin,DRSC14994,3.46e6,3.81e6
CG10969,DRSC09811,3.65e6,4.16e6
CG3739,DRSC15510,3.60e6,4.14e6
CG15764,DRSC18070,3.55e6,4.06e6
CG15040,DRSC19616,1.97e6,4.14e6
CG15040,DRSC21482,3.47e6,3.98e6
Gtpx,DRSC08221,3.81e6,4.34e6
Gtpx,DRSC22117,3.32e6,3.89e6
stai,DRSC22235,3.35e6,3.84e6
ttm50,DRSC18587,3.61e6,3.96e6
LeuRS-m,DRSC08595,3.54e6,4.04e6
nemy,DRSC05357,3.46e6,4.00e6
nemy,DRSC07262,3.42e6,3.91e6
l(3)73Ah,DRSC11359,3.82e6,4.32e6
Lsp1gamma,DRSC08672,3.43e6,3.90e6
ND-PDSW,DRSC00715,3.60e6,4.16e6
Ubc84D,DRSC12610,3.50e6,3.92e6
bc10,DRSC11326,3.60e6,4.06e6
Ip6k,DRSC04054,3.45e6,3.96e6
Rab18,DRSC18702,3.70e6,4.28e6
CG13005,DRSC19524,3.51e6,4.05e6
chrb,DRSC11335,3.56e6,3.93e6
COX7AL2,DRSC00099,3.61e6,4.00e6
cpa,DRSC04080,3.50e6,3.96e6
CG15553,DRSC15091,3.40e6,3.80e6
GstD10,DRSC15346,3.62e6,4.07e6
Syt4,DRSC12606,3.54e6,4.03e6
CG5004,DRSC19929,3.48e6,3.92e6
CG5004,DRSC19930,3.42e6,3.90e6
CG5004,DRSC20123,3.23e6,3.63e6
CG32815,DRSC18177,3.74e6,4.21e6
Cpr57A + Obp57d,DRSC06708,3.48e6,4.02e6
Cpr57A + Obp57d,DRSC22719,3.46e6,3.86e6
STUB1,DRSC03282,3.57e6,3.97e6
Rae1,DRSC04577,3.25e6,3.62e6
